Source: US10266552B2, “Condensed heterocyclic compound having cycloalkylpyridyl group or salt thereof, agricultural and horticultural insecticide comprising the compound, and method for using the insecticide” (Nihon Nohyaku Co., Ltd., priority 2015, dated 2019)
Some of these results come from one statement about several compounds together. For at least one compound, name, drawing or mass did not settle the structure.

System: Myzus persicae
Test: Test of control effect on Myzus persicae (foliar application, potted Chinese cabbage)
Assay type: in vivo
Details: 500 ppm, foliar application to potted Chinese cabbage plants, 6 days after the foliar application
Excerpt: Test of Control Effect on Myzus persicae Chinese cabbage plants were planted in plastic pots (diameter: 8 cm, height: 8 cm), green peach aphids (Myzus persicae) were propagated on the plants, and the number of surviving green peach aphids in each pot was counted. The condensed heterocyclic compounds represented by the general formula (1) of the present invention or salts thereof were separately dispersed in water and diluted to 500 ppm, and the agrochemical dispersions were applied to the foliage of the potted Chinese cabbage plants. After the plants were air-dried, the pots were kept in a greenhouse. At 6 days after the foliar application, the number of surviving green peach aphids on the Chinese cabbage plant in each pot was counted, the control rate was calculated according to the formula shown below, and the control effect was evaluated according to the criterion shown below. Control rate=100−{(T×Ca)/(Ta×C)}×100 Ta: the number of survivors before the foliar application in a treatment plot T: the number of survivors after the foliar application in a treatment plot Ca: the number of survivors before the foliar application in a non-treatment plot C: the number of survivors after the foliar application in a non-treatment plot Criterion A: the control rate is 100%. B: the control rate is 90 to 99%. C: the control rate is 80 to 89%. D: the control rate is 50 to 79%.

## CCS(=O)(=O)c1cc(C2(C#N)CC2)cnc1-c1nc2cc(SC(F)(F)F)ccc2o1 [Compound 18-173]
  control effect (control rate), activity level: A (the control rate is 100%)
